Here are results for 62 compounds from PubChem BioAssay AID445 (National Center for Advancing Translational Sciences (NCATS), 2006).

The test in a line: IkB Signaling. The note with it: ABC-DLBCL IkBa-CBG/CBR dual luciferase ratio (green luciferase fused to IkBa over red control in OCI-Ly3 lymphoma cells), 4 h. The essentials:
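Luminescence ratio of IκBα-fused green versus native red beetle luciferase in OCI-Ly3 cells, 4 h post-doxycycline with compound; red signal alone, scaled from basal (0%) to zero light (-100%), flagged nonspecific or cytotoxic effects.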

Setting [1] is: measured here: control luc red channel unless noted.

The list shows a part of the results. The main result of the screen is listed elsewhere. These columns were measured beside it and carry no call. Most of these compounds were active or inconclusive in the main read-out, so they are no random draw. The note in brackets gives the kind of curve behind each potency; many fits are weak.

Consider `CCOc1ccc(C2=NC(c3ccncc3)=Nc3ccc(C)cc3N2)cc1OCC`, for which, under setting [1], the half-maximal activity concentration (AC50) – broadly, the concentration giving half of the maximal activity seen – is 15.8 µM [falling, partial curve]. On to `COCc1cc(C)nc2sc(C(=O)Nc3ccccc3O)c(N)c12`, for which, under setting [1], the AC50 is 3.98 µM [rising, partial curve]. The same measure, in the same setting: next, `Cc1ccc(OCCn2cc(C(=O)c3cccs3)c3ccccc32)cc1`: 5.01 µM [falling, full curve].

With `COc1ccc(N(Cc2ccccc2)C(=O)c2nc(S(C)(=O)=O)ncc2Cl)cc1`, the AC50 under setting [1] was 3.16 µM [falling, partial curve].

As to `Cc1cccc(N2CCN(C(=O)Cn3nc(C)c4sc5ccccc5c4c3=O)CC2)c1C`, the AC50 under setting [1] is 7.94 µM [falling, full curve]. Same read-out and setting: with `COc1cccc(C(=O)Nc2ccc(-n3nncc3-c3ccccc3)cc2)c1OC` the figure was 25.1 µM [falling, single point]; with `COc1ccc(CNC(=O)Cn2c(=O)nc(-c3ccccc3)c3cc(Cl)ccc32)cc1OC`, 39.8 µM [falling, partial curve, poor fit]; with `CCn1c2ccccc2c2nnc(N3CCN(c4cccc(Cl)c4)CC3)nc21`, 12.6 µM [falling, partial curve]. Regarding `O=c1cnc2cnc(Nc3ccccc3)nc2n1Cc1cccs1`, the AC50 (measured here: IkB-luc green channel) was 3.16 µM [falling, partial curve] and the AC50 (measured here: control luc red channel) is 3.98 µM [falling, partial curve].

As to `CCc1ccc(NC(=O)CCc2c(C)nc3nc(-c4cc(OC)cc(OC)c4)nn3c2C)cc1`, under setting [1], the concentration at half-maximal activity (AC50) is 7.94 µM [falling, partial curve]. Take `Cc1ccc(N2CCn3c2nc2c3c(=O)n(C/C=C/c3ccccc3)c(=O)n2C)cc1C`: under setting [1], the AC50 is 12.6 µM [falling, partial curve]. Consider `COc1ccc(-c2noc(CCCC(=O)Nc3cccc(Cl)c3C)n2)cc1`, for which the concentration at half-maximal activity (AC50) under setting [1] was 0.794 µM [falling, partial curve]. The same measure, in the same setting: with `Cc1ccc(CN2CCSc3ccc(C(=O)NCc4ccc(OC(C)C)cc4)cc32)cc1` the figure was 0.00631 µM [falling, full curve, poor fit]; with `O=C(Cn1c(=O)n(-c2ccc(F)cc2)c(=O)c2sc3ccccc3c21)NC1CCCC1`, 15.8 µM [falling, partial curve]; with `COc1ccc(-n2nc3ccc(NC(=O)c4c(OC)cccc4OC)cc3n2)cc1`, 12.6 µM [rising, partial curve]. In the case of `Cc1cc(C)cc(NC(=O)C2CCCN(S(=O)(=O)c3cccc4nsnc34)C2)c1` (stereo not drawn), under setting [1], the concentration at half-maximal activity (AC50) is 0.794 µM [falling, partial curve]. The same measure, in the same setting: next, `C[C@]12C=CC(=O)C=C1CC[C@@H]1[C@H]3C[C@@H](O)[C@](O)(C(=O)CO)[C@@]3(C)C[C@H](O)[C@]12F`: 20 nM [rising, full curve] [measured here: IkB-luc green channel]; `CCOC(=O)c1c(C)[nH]c(C)c1S(=O)(=O)NCC(=O)Nc1ccc(C)cc1C`: 6.31 µM [falling, single point]; `COc1ccc(Cl)cc1N1C(=O)C2CCCN2C1c1sccc1C` (stereo not drawn): 31.6 µM [falling, partial curve]. Still for that read-out and setting: next, `COc1ccc(N(CC(=O)NC2CCCC2)C(=O)c2ccc(N3CCCCC3)nc2)cc1`: 20 µM [falling, partial curve]; `COc1ccc(NC(=O)CSc2nc(-c3cccs3)cc(C(F)(F)F)n2)cc1Cl`: 12.6 µM [falling, partial curve].

Regarding `CCc1ccc(C(=O)CC2(O)C(=O)N(CCc3ccccc3)c3ccc(Br)cc32)cc1` (stereo not drawn), the concentration at half-maximal activity (AC50) under setting [1] was 25.1 µM [falling, partial curve]. For `CCc1c(C)sc2c1CCN(Cc1cccc(OC)c1)C2c1ccccc1` (stereo not drawn), under setting [1], the concentration at half-maximal activity (AC50) is 39.8 µM [falling, single point].

`CCC1=Nc2cc(C(=O)NCCc3ccc(OC)c(OC)c3)ccc2Sc2ccccc21`: the half-maximal activity concentration (AC50) under setting [1] is 39.8 µM [falling, single point]. As to `CCCCN(CCCC)CCNC(=O)Cn1nc(CC)n2c(cc3sccc32)c1=O`, under setting [1], the concentration at half-maximal activity (AC50) was 25.1 µM [falling, single point]. On the same count and under the same terms, next, `CCc1ccccc1S(=O)(=O)Cc1ccc(C(=O)NCc2ccc(Cl)cc2)o1`: 15.8 µM [falling, partial curve]; `Cc1ccc(CSC2=Nc3ccccc3C3=NC(CCC(=O)NC4CCCCC4)C(=O)N23)cc1` (stereo not drawn): 1.58 µM [rising, full curve, poor fit]. Turning to `Cc1onc(-c2ccccc2Cl)c1C(=O)Nc1cccc(-c2cn3cccnc3n2)c1`, the concentration at half-maximal activity (AC50) under setting [1] is 12.6 µM [falling, partial curve]. Turning to `CCn1cnc2c(=O)oc3ccc(S(=O)(=O)N4CCN(c5cc(C)ccc5C)CC4)cc3c21`, the AC50 under setting [1] is 3.98 µM [falling, partial curve].

`O=S(=O)(NCCc1ccc(Cl)cc1)c1ccc(N2CCCCS2(=O)=O)cc1`: under setting [1], the concentration at half-maximal activity (AC50) was 25.1 µM [falling, partial curve].

Consider `COc1ccc(C2=C(C)C(=O)N(Cc3ccc(C(=O)NCc4ccccc4C)cc3)S2(=O)=O)cc1`, for which the half-maximal activity concentration (AC50) under setting [1] is 39.8 µM [falling, single point]. As for `CCc1nc2ccccc2c(=O)n1NC(=O)c1c(O)c2cccc3c2n(c1=O)CCC3`, the AC50 under setting [1] is 12.6 µM [falling, partial curve].

In the case of `CCOc1ccc(NC(=O)CCn2c(-c3ccc(F)cc3)cc(C(C)=O)c2C)cc1`, under setting [1], the AC50 is 0.398 µM [falling, partial curve]. On the same count and under the same terms, next, `CCN(C(=O)CCS(=O)(=O)c1ccc(Br)cc1)c1ccc2c(c1)OCO2`: 25.1 µM [falling, single point]; `CCCOc1ccc(C(=O)Nc2cc3nn(-c4ccc(CC)cc4)nc3cc2C)cc1`: 2.51 µM [rising, full curve]. Turning to `O=C(CSc1nnc(-c2ccccc2)c(-c2ccccc2)n1)Nc1ccccc1Cl`, the concentration at half-maximal activity (AC50) under setting [1] is 12.6 µM [falling, partial curve]. In the case of `COc1ccccc1OCCCn1c(-c2ccc(Cl)cc2)nc2ccccc2c1=O`, the AC50 under setting [1] was 31.6 µM [falling, single point]. On the same count and under the same terms, next, `Cc1ccc(-c2noc(CCC(=O)NCCCN3CCN(c4cccc(Cl)c4)CC3)n2)cc1`: 3.98 µM [falling, partial curve]. Same read-out and setting: with `CCC(C)Cn1c(COc2ccc(OC)cc2)nc2ccccc21` (stereo not drawn) the figure was 39.8 µM [falling, single point]; with `Cc1cc(C)c2cc(CN(CC3CCCO3)C(=O)NC3CCCCC3)c(=O)[nH]c2c1` (stereo not drawn), 31.6 µM [falling, partial curve]; with `CCOC(=O)c1ccc(NC(=O)Nc2cccc(OCc3cc(=O)n4ccc(C)cc4n3)c2)cc1`, 39.8 µM [rising, single point]. Same read-out and setting: next, `COc1ccc(NC(=O)CCc2nc3cccnc3n2Cc2cccs2)c(OC)c1`: 3.16 µM [falling, partial curve, poor fit]; `Cc1nnc(SCC(=O)Nc2ccc(Cl)cn2)n1Cc1ccccc1`: 12.6 µM [falling, partial curve]. For the compound `Cc1ccc(CN2C(=O)SC(Nc3ccccc3)C2=O)cc1` (stereo not drawn), under setting [1], the concentration at half-maximal activity (AC50) was 15.8 µM [falling, partial curve].

On to `O=C1NC(=S)SC1=C1CCCCCC1`, for which the half-maximal activity concentration (AC50) under setting [1] is 1.58 µM [falling, full curve]. Still for that read-out and setting: next, `CC(C)CCSc1nc2c(c(=O)n(C)c(=O)n2C)n1Cc1ccccc1Cl`: 3.16 µM [falling, full curve]; `O=C(C1CCN(S(=O)(=O)c2cccc3nonc23)CC1)N1CCN(c2ccc(F)cc2)CC1`: 20 µM [falling, partial curve]. For `Nc1nc(-c2cccs2)c(NC(=O)c2ccccc2)s1`, the AC50 under setting [1] is 12.6 µM [falling, partial curve]. Same read-out and setting: next, `CCOC(=O)c1c(C)oc2ncnc(Nc3ccc(CC)cc3)c12`: 0.0126 µM [rising, full curve, poor fit]; `COc1ccc(/C=C/c2nc(-c3ccccc3O)n(-c3ccccc3)n2)cc1OC`: 10 µM [falling, single point]. Still for that read-out and setting: next, `COc1cc(N)c(Cl)cc1C(=O)N[C@H]1CCN(CCCOc2ccc(F)cc2)C[C@@H]1OC`: 39.8 µM [falling, partial curve]; `CC(=O)c1ccc(NC(=O)C(Cc2ccccc2)NS(=O)(=O)c2ccc3c(c2)CCC(=O)N3)cc1` (stereo not drawn): 12.6 µM [falling, partial curve].

As to `CCOC(=O)Cc1c(C)nc2c(-c3ccc(OC)c(OC)c3)c(C)nn2c1C`, the AC50 under setting [1] was 0.316 µM [rising, partial curve, poor fit].

As for `Cc1cccc(C(=O)Nc2nnc(S(=O)(=O)N3CCC(C)CC3)s2)c1`, under setting [1], the AC50 was 3.16 µM [falling, partial curve]. Regarding `CN1CCN(C(=O)c2cc(-c3cccc(Cl)c3)on2)CC1`, under setting [1], the AC50 was 12.6 µM [falling, partial curve]. On the same count and under the same terms, next, `Cc1cccc(C)c1OCC(=O)Nc1cccc(NC(=O)c2ccco2)c1`: 10 µM [falling, partial curve]; `CC(=O)c1cccc(NC(=O)Cn2c(-c3cncs3)nc3ccccc32)c1`: 3.16 µM [falling, partial curve].

Turning to `CCc1cccc(NC(=O)c2cc(S(=O)(=O)N3CCCCCC3)cn2C)c1`, under setting [1], the half-maximal activity concentration (AC50) was 7.94 µM [falling, full curve].

`COc1ccccc1NC(=O)c1sc2nc(C)c(C(=O)Nc3ccc(Cl)cc3)c(-c3ccc(Br)cc3)c2c1N`: the AC50 under setting [1] is 6.31 µM [falling, partial curve]. As to `CC(C)(C)C(=O)NC1CC(=O)N(c2ccc3c(c2)OCCO3)C1` (stereo not drawn), the AC50 under setting [1] is 1.58 µM [rising, full curve, poor fit]. Turning to `Cc1ccccc1CN1CCC(CNC(=O)c2cc3ccc4cccnc4c3[nH]2)CC1`, under setting [1], the half-maximal activity concentration (AC50) was 20 µM [falling, single point]. Still for that read-out and setting: next, `CN(C)c1ccnc2sc(C(=O)NCc3ccccc3)c(N)c12`: 31.6 µM [falling, single point].
